US5861400A, “Pharmaceutical compounds” (Xenova Limited, priority 1994, dated 1999)
At least one read-out could not be matched to a standard name with certainty.

system: AR 1.0 cells; assay: Proliferation/toxicity assay, compound alone and with cytotoxic agent (sulphorhodamine B); type: cell-based, mouse; conditions: cytotoxic agent (doxorubicin) 0.50 μg/ml; 5760 min; read-out: TOXICITY WITH CYTOTOXIC AGENT (IC 50 μM)

Row | SMILES | IC50 [µM]
1 | Cn1c(=O)/c(=C/c2cn(C(=O)OC(C)(C)C)c3ccccc23)n(C)c(=O)/c1=C/c1c(Cl)cccc1Cl [Compound 1873, (3Z,6Z)-6-(2,6-dichlorobenzylidene)-3-(1-tertbutoxycarbonyl-3-indolyl)methylene-1,4-dimethyl-2,5-piperazinedione] | 0.8
2 | COc1ccc(/C=c2/c(=O)n(Cc3ccccc3)/c(=C\c3ccoc3)c(=O)n2C)cc1 [Compound 1880, (3Z,6Z)-4-Benzyl-3-(3-furylmethylene)-6-(4-methoxybenzylidene)-1-methyl-2,5-piperazinedione] | 1
3 | Cn1c(=O)/c(=C/c2cn(C(=O)OCc3ccccc3)c3ccccc23)n(C)c(=O)/c1=C/c1ccccc1 [Compound 1940, (3Z,6Z)-3-Benzylidene-6-(1-benzyloxycarbonyl-3-indolyl)methylene-1,4-dimethyl-2,5-piperazinedione] | 0.7
